Measured values from publication PMC12410356 (International Journal for Parasitology: Drugs and Drug …, 2025).

Experiments:
[1] = test system: E. multilocularis metacestode vesicles; assay: Metacestode vesicle viability assay (ATP, CellTiter-Glo); type: cell-based, Echinococcus multilocularis; conditions: overview screen, 10 μM, singlets, 12 days, relative to DMSO control
Experimental: Viability was assessed after 12 days using the same metacestode vesicles as for the PGI release assay. Triton X-100 was added to each well to a final concentration of 0.1 %. Subsequently the metacestode vesicles were broken mechanically and 50 μL of the supernatant was mixed with 50 μL of CellTiter-Glo® buffer (Promega, Dübendorf, Switzerland). Measurements were performed on a HIDEX Sense microplate reader.

[2] = test system: E. multilocularis metacestode vesicles; assay: Phosphoglucose isomerase (PGI) release assay (damage-marker release) on metacestode vesicles; type: cell-based, Echinococcus multilocularis; conditions: overview screen, 10 μM, singlets, relative to 0.1 % Triton X-100, DMSO subtracted
Experimental: In order to quantify the drug-induced damage on whole metacestode vesicles, phosphoglucose isomerase (PGI) assay was performed as described previously ([Stadelmann et al., 2010]) with few adaptations published recently ([Kaethner et al., 2023]). In short, 8 to 12 weeks-old metacestode vesicles were purified using 2 % sucrose with subsequent washes in PBS. Metacestode vesicles were diluted in two volumes of DMEM without phenol red containing penicillin (100 U/mL) and streptomycin (100 μg/mL). […] 0.1 % DMSO was used as a negative solvent control and 0.1 % Triton X-100 was used as a positive total damage control. Metacestode vesicles were incubated under a humid, 5 % CO2 atmosphere at 37 °C. After five and twelve days, supernatant was taken and pictures were made using a Nikon SMZ18 stereo microscope (Nikon, Basel, Switzerland) at 7.5 × magnification. PGI activity in the supernatants was measured on a HIDEX Sense microplate reader (Hidex, Turku, Finland). The corresponding values of the DMSO controls were subtracted from the values of the compounds and then PGI activity was calculated relative to 0.1 % Triton X-100. […] IC50 values were calculated applying the 3 parameter Weibull type 1 in R for each of the three independent experiments ([Ritler et al., 2020]).

SMILES: Cl.Clc1ccc(COC(Cn2ccnc2)c2ccc(Cl)cc2Cl)c(Cl)c1 (stereo not drawn) [MMV002722]
- Viability d12 (relative viability) [1]: 116.729%
- PGI d5 (relative PGI release) ([2]; 5 days): -0.1445%
- PGI d12 (relative PGI release) ([2]; 12 days): -8.771%
